Results published in the supplement of paper PMC8728848.
The other results are listed elsewhere or left out.

Tests used:
Experiment in all cases: glycan array binding signal (z-score within array); higher = stronger binding
Details in all cases: glycan notation: IUPAC condensed, linker removed
[1] = molecular target: Glc(b1-4)Glc
Summary of the method: (§1)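 From the Consortium for Functional Glycomics database, 3228 arrays were curated, keeping only those whose protein sequence was available. Binding is given as a within-array Z-score averaged across arrays sharing a protein sequence and across linkers. Negative Z-scores can be read as non-binding.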

[2] = molecular target: Glc(b1-6)Glc
Summary of the method: as §1

[3] = molecular target: GlcA(b1-3)Gal
Summary of the method: as §1

[4] = molecular target: GlcA(b1-3)GlcNAc
Summary of the method: as §1

[5] = molecular target: GlcA(b1-6)Gal
Summary of the method: as §1

[6] = molecular target: GlcA3S(b1-3)Gal(b1-4)GlcNAc(b1-2)Man
Summary of the method: as §1

[7] = molecular target: GlcA3S(b1-3)Gal(b1-4)GlcNAc(b1-3)Gal(b1-4)Glc
Summary of the method: as §1

[8] = molecular target: GlcNAc(a1-3)Gal(b1-4)GlcNAc
Summary of the method: as §1

[9] = molecular target: GlcNAc(a1-4)Gal(b1-3)GlcNAc
Summary of the method: as §1

[10] = molecular target: GlcNAc(a1-4)Gal(b1-4)GalNAc
Summary of the method: as §1

[11] = molecular target: GlcNAc(a1-4)Gal(b1-4)GlcNAc
Summary of the method: as §1

[12] = molecular target: GlcNAc(a1-4)Gal(b1-4)GlcNAc(b1-3)Gal(b1-4)Glc
Summary of the method: as §1

[13] = molecular target: GlcNAc(a1-4)Gal(b1-4)GlcNAc(b1-3)Gal(b1-4)GlcNAc
Summary of the method: as §1

[14] = molecular target: GlcNAc(a1-4)Gal(b1-4)GlcNAc(b1-3)Gal(b1-4)GlcNAc(b1-3)Gal(b1-4)GlcNAc
Summary of the method: as §1

[15] = molecular target: GlcNAc(a1-4)Gal(b1-4)GlcNAc(b1-3)Gal(b1-4)[Fuc(a1-3)]GlcNAc(b1-3)Gal(b1-4)[Fuc(a1-3)]GlcNAc
Summary of the method: as §1

[16] = molecular target: GlcNAc(a1-6)Gal(b1-4)GlcNAc
Summary of the method: as §1

[17] = molecular target: GlcNAc(b1-2)Gal(b1-3)GalNAc
Summary of the method: as §1

[18] = molecular target: GlcNAc(b1-2)Man(a1-3)[GlcNAc(b1-2)Man(a1-6)]Man(b1-4)GlcNAc(b1-4)GlcNAc
Summary of the method: as §1

[19] = molecular target: GlcNAc(b1-2)Man(a1-3)[GlcNAc(b1-2)Man(a1-6)]Man(b1-4)GlcNAc(b1-4)[Fuc(a1-6)]GlcNAc
Summary of the method: as §1

[20] = molecular target: GlcNAc(b1-2)Man(a1-3)[GlcNAc(b1-4)][GlcNAc(b1-2)Man(a1-6)]Man(b1-4)GlcNAc(b1-4)GlcNAc
Summary of the method: as §1

[21] = molecular target: GlcNAc(b1-2)Man(a1-3)[GlcNAc(b1-4)][GlcNAc(b1-2)Man(a1-6)]Man(b1-4)GlcNAc(b1-4)[Fuc(a1-6)]GlcNAc
Summary of the method: as §1

[22] = molecular target: GlcNAc(b1-2)[GlcNAc(b1-4)]Man(a1-3)[GlcNAc(b1-2)Man(a1-6)]Man(b1-4)GlcNAc(b1-4)GlcNAc
Summary of the method: as §1

[23] = molecular target: GlcNAc(b1-2)[GlcNAc(b1-4)]Man(a1-3)[GlcNAc(b1-4)][GlcNAc(b1-2)Man(a1-6)]Man(b1-4)GlcNAc(b1-4)GlcNAc
Summary of the method: as §1

[24] = molecular target: GlcNAc(b1-2)[GlcNAc(b1-4)]Man(a1-3)[GlcNAc(b1-4)][GlcNAc(b1-2)[GlcNAc(b1-6)]Man(a1-6)]Man(b1-4)GlcNAc(b1-4)GlcNAc
Summary of the method: as §1

[25] = molecular target: GlcNAc(b1-2)[GlcNAc(b1-4)]Man(a1-3)[GlcNAc(b1-4)][GlcNAc(b1-2)[GlcNAc(b1-6)]Man(a1-6)]Man(b1-4)GlcNAc(b1-4)[Fuc(a1-6)]GlcNAc
Summary of the method: as §1

[26] = molecular target: GlcNAc(b1-2)[GlcNAc(b1-6)]Man(a1-6)[GlcNAc(b1-2)Man(a1-3)]Man(b1-4)GlcNAc(b1-4)GlcNAc
Summary of the method: as §1

[27] = molecular target: GlcNAc(b1-2)[GlcNAc(b1-6)]Man(a1-6)[GlcNAc(b1-2)Man(a1-3)]Man(b1-4)GlcNAc(b1-4)[Fuc(a1-6)]GlcNAc
Summary of the method: as §1

[28] = molecular target: GlcNAc(b1-2)[GlcNAc(b1-6)]Man(a1-6)[GlcNAc(b1-4)][GlcNAc(b1-2)Man(a1-3)]Man(b1-4)GlcNAc(b1-4)GlcNAc
Summary of the method: as §1

[29] = molecular target: GlcNAc(b1-3)Fuc
Summary of the method: as §1

[30] = molecular target: GlcNAc(b1-3)Gal
Summary of the method: as §1

[31] = molecular target: GlcNAc(b1-3)Gal(b1-3)GalNAc
Summary of the method: as §1

[32] = molecular target: GlcNAc(b1-3)Gal(b1-4)Glc
Summary of the method: as §1

[33] = molecular target: GlcNAc(b1-3)Gal(b1-4)GlcNAc
Summary of the method: as §1

[34] = molecular target: GlcNAc(b1-3)Gal(b1-4)GlcNAc(b1-2)Man(a1-3)[GlcNAc(b1-3)Gal(b1-4)GlcNAc(b1-2)Man(a1-6)]Man(b1-4)GlcNAc(b1-4)GlcNAc
Summary of the method: as §1

[35] = molecular target: GlcNAc(b1-3)Gal(b1-4)GlcNAc(b1-2)Man(a1-3)[GlcNAc(b1-3)Gal(b1-4)GlcNAc(b1-2)Man(a1-6)]Man(b1-4)GlcNAc(b1-4)[Fuc(a1-6)]GlcNAc
Summary of the method: as §1

[36] = molecular target: GlcNAc(b1-3)Gal(b1-4)GlcNAc(b1-2)[GlcNAc(b1-3)Gal(b1-4)GlcNAc(b1-6)]Man(a1-6)[GlcNAc(b1-3)Gal(b1-4)GlcNAc(b1-2)Man(a1-3)]Man(b1-4)GlcNAc(b1-4)GlcNAc
Summary of the method: as §1

[37] = molecular target: GlcNAc(b1-3)Gal(b1-4)GlcNAc(b1-3)Gal(b1-4)GlcNAc
Summary of the method: as §1

B1: RsaA-N-term (Caulobacter crescentus), P35828 (protein)
chain: MAYTTAQLVTAYTNANLGKAPDAATTLTLDAYATQTQTGGLSDAAALTNTLKLVNSTTAVAIQTYQFFTGVAPSAAGLDFLVDSTTNTNDLNDAYYSKFAQENRFINFSINLATGAGAGATAFAAAYTGVSYAQTVATAYDKIIGNAVATAAGVDVAAAVAFLSRQANIDYLTAFVRANTPFTAAADIDLAVKAALIGTILNAATVSGIGGYATATAAMINDLSDGALSTDNAAGVNLFTAYPSSGVSGSTLSLTTGTDTLTGTANNDTFVAGEVAGDGSGWSHPQFEKGG
[1]
  glycan array binding signal (z-score): -0.512
[2]
  glycan array binding signal (z-score): -0.435
[3]
  glycan array binding signal (z-score): -1.22
[4]
  glycan array binding signal (z-score): -0.246
[5]
  glycan array binding signal (z-score): -0.029
[6]
  glycan array binding signal (z-score): -0.383
[7]
  glycan array binding signal (z-score): -1.01
[8]
  glycan array binding signal (z-score): 0.371
[9]
  glycan array binding signal (z-score): 0.008
[10]
  glycan array binding signal (z-score): -0.739
[11]
  glycan array binding signal (z-score): -0.154
[12]
  glycan array binding signal (z-score): -0.491
[13]
  glycan array binding signal (z-score): 0.269
[14]
  glycan array binding signal (z-score): -0.211
[15]
  glycan array binding signal (z-score): -0.566
[16]
  glycan array binding signal (z-score): 0.087
[17]
  glycan array binding signal (z-score): -1.33
[18]
  glycan array binding signal (z-score): -0.715
[19]
  glycan array binding signal (z-score): 0.396
[20]
  glycan array binding signal (z-score): -0.518
[21]
  glycan array binding signal (z-score): -1.03
[22]
  glycan array binding signal (z-score): -0.266
[23]
  glycan array binding signal (z-score): 1.97
[24]
  glycan array binding signal (z-score): -1.75
[25]
  glycan array binding signal (z-score): 0.317
[26]
  glycan array binding signal (z-score): -0.552
[27]
  glycan array binding signal (z-score): 0.799
[28]
  glycan array binding signal (z-score): -0.652
[29]
  glycan array binding signal (z-score): -0.041
[30]
  glycan array binding signal (z-score): -0.705
[31]
  glycan array binding signal (z-score): 0.337
[32]
  glycan array binding signal (z-score): -0.647
[33]
  glycan array binding signal (z-score): -0.005
[34]
  glycan array binding signal (z-score): 2.18
[35]
  glycan array binding signal (z-score): 1.5
[36]
  glycan array binding signal (z-score): 0.218
[37]
  glycan array binding signal (z-score): 0.629
